Among the data in paper PMC11909135, “Raptin, a sleep-induced hypothalamic hormone, suppresses appetite and obesity” (Cell Research, 2025) are binding values, retold here.

By UniProt entry, the sequences of proteins in these tests, tags left out. Where a name states a change or a piece, a line headed by the entry shows the natural chain unless it says otherwise. Chains listed by the source or under a name are the forms on record and can include a tag or linker. Residues count along the entry.
UniProt Q14832: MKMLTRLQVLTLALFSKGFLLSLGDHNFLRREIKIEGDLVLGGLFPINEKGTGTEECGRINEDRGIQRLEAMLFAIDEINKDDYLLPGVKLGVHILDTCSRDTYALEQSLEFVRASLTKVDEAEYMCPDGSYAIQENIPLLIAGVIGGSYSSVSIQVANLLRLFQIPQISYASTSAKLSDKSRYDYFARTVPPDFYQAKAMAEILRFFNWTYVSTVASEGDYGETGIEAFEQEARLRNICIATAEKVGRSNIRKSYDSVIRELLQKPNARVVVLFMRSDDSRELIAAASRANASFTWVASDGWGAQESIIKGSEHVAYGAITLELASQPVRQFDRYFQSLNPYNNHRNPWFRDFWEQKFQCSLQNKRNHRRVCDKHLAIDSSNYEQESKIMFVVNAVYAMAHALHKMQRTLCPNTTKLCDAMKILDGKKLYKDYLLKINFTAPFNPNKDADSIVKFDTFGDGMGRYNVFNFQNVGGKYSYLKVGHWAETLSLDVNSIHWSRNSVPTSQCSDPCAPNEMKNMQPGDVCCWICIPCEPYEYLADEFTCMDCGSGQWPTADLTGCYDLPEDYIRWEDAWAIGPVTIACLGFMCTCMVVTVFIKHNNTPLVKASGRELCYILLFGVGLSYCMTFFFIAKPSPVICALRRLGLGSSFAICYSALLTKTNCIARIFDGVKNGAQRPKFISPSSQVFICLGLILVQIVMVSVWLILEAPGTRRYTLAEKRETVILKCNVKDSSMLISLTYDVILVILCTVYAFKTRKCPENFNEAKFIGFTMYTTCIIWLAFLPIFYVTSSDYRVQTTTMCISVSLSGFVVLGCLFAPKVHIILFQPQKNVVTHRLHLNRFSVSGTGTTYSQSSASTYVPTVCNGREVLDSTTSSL
SNAP-tagged GRM3: residues 23-879 of Q14832
GRM3 VFT (extracellular venus flytrap domain of GRM3): residues 30-500 of Q14832

These are yes or no findings as the source states them, for the method shown. For some of these results: In cells and extracts the contact can be indirect. Some results given as binding are weak or reduced against the parent protein; the word gives no strength. Tags and fused reporters may be left off the sequences shown.

Assay [1] has as its target T1, recombinant mouse Raptin protein with a His-tag (mouse).
T1 sequence: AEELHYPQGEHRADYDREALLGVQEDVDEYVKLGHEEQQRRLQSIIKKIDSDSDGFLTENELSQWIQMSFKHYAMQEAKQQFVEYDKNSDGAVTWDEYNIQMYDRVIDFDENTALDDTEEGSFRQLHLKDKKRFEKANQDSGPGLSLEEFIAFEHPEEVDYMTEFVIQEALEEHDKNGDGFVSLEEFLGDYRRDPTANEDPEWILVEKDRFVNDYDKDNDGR
Put plainly: co-IP; His-Raptin incubated with cell lysates 2 h at room temperature; anti-His antibody on protein A/G magnetic beads, 4 °C overnight; SDS-PAGE and blot; only the target purified.

For assay [2], the target named is GRM3 overexpressed in HEK293T cells (Grm3 plasmid) (UniProt Q14832). Put plainly: saturation binding assay on cells; different doses of biotin-labeled His-Raptin on HEK293T cells with or without GRM3 or mutant GRM3-VFT overexpression, 30 min at room temperature; nonspecific binding with 50-fold excess unconjugated His-Raptin; streptavidin-HRP, absorbance at 450 nm, normalized to protein content; only the binder purified.

Assay [3] addresses SNAP-tagged GRM3 (UniProt Q14832). Kind of assay: FRET or BRET; time-resolved FRET on HEK293 cells with SNAP-tagged GRM3 labelled with SNAP-Lumi4-Tb and SNAP-Green in Tag-Lite buffer; Raptin or glutamate added; acceptor ratio; only the binder purified.
The target of assay [4] is GRM3 VFT (extracellular venus flytrap domain of GRM3) (UniProt Q14832). Kind of assay: co-IP; co-immunoprecipitation from cells transfected with human WT RCN2 or the RCN2 variant (HEK293T).

Regarding “GRM3 VFT (extracellular venus flytrap domain of GRM3) (from UniProt Q14832-1 30-500) (domain or fragment)”, in assay [1], the binding entry is listed as “binds”.

B1: biotin-labeled His-Raptin (ligand)
chain: T1 sequence
modifications: biotin (site not stated)
With B1, in assay [2], the binding result is “binds”.

B2: recombinant mouse Raptin protein with a His-tag (ligand)
chain: T1 sequence
B2: the binding entry in assay [3] is “binds”.

B3: His-tagged RCN2 nonsense variant (p.Arg157Ter, c.469 C > T) (domain or fragment, UniProt Q14257 23-156)
chain: GKAEELHYPLGERRSDYDREALLGVQEDVDEYVKLGHEEQQKRLQAIIKKIDLDSDGFLTESELSSWIQMSFKHYAMQEAKQQFVEYDKNSDDTVTWDEYNIQMYDRVIDFDENTALDDAEEESFRKLHLKDKK
B3: in assay [4], the binding result is “no binding”.
